Measured values from PubChem BioAssay AID328 (DTP/NCI, 2004).
The list is a part of this screen's results and no random one: it gathers some chemical classes. Other doses and runs of a compound may be missing. T/C: endpoint of the treated group in % of that of the vehicle group. Where survival is the endpoint, the PubChem record calls one and a half times the control and up active, and a quarter to a half above the control has no call in these data; cut-offs in other NCI protocols can differ. Some T/C values are marked as having no survivor count here; that says nothing about deaths at the dose. Schedule codes are those of the source, taken here to give the interval after Q, in days (D) or hours (H), and the number of doses after X. Some entries hold several experiments; their values stand side by side, smallest first.

Test system: BDF1 mice, P388 leukemia ip, median survival T/C
Experiment: NCI In Vivo Anticancer Drug Screen. Data for tumor model P388 Leukemia (intraperitoneal) in B6D2F1 (BDF1) mice
Conditions: T/C endpoint: median survival time, higher T/C = longer survival
Method: The antitumor activity of compounds was measured in mice bearing transplantable tumors. Survival or tumor size were measured and the results are expressed as the measurement made in the treated group (T) divided by the measurement made in the vehicle treated control group (C). The tumor model used in this assay is P388 Leukemia (intraperitoneal) in B6D2F1 (BDF1) mice

[1] = dose: 1.0 mg/kg/injection, schedule: Q04DX003 (ip), vehicle: saline
[2] = dose: 1.5 mg/kg/injection, schedule: Q04DX003 (ip), vehicle: saline

With `ClCCNCCBr` as the compound, how does the T/C (dose: 0.78 mg/kg/injection, schedule: Q01DX009 (ip), vehicle: saline) read?
Its T/C is 118 % of control [survivor count not shown].

What about the T/C [1] of the same compound?
The T/C was 113 % of control [survivor count not shown].

What about the T/C (dose: 1.25 mg/kg/injection, schedule: Q01DX009 (ip), vehicle: saline) of the same compound?
Its T/C is 116 [survivor count not shown], 126 [survivor count not shown], 198 % of control [survivor count not shown].

What about the T/C (dose: 1.25 mg/kg/injection, schedule: Q04DX003 (ip), vehicle: saline) of the same compound?
The T/C was 100 % of control [survivor count not shown].

What about the T/C [2] of the same compound?
Its T/C is 145 % of control [survivor count not shown].

And the T/C (dose: 1.56 mg/kg/injection, schedule: Q01DX009 (ip), vehicle: saline)?
Its T/C is 121 [survivor count not shown] and 145 % of control [survivor count not shown].

What about the T/C (dose: 2.2 mg/kg/injection, schedule: Q04DX003 (ip), vehicle: saline) of the same compound?
Its T/C is 136 % of control [survivor count not shown].

What about the T/C (dose: 2.5 mg/kg/injection, schedule: Q01DX009 (ip), vehicle: saline) of the same compound?
Its T/C is 122 [survivor count not shown], 128 [survivor count not shown], 245 % of control [survivor count not shown].

What about the T/C (dose: 2.5 mg/kg/injection, schedule: Q04DX003 (ip), vehicle: saline) of the same compound?
Its T/C is 102 [survivor count not shown] and 117 % of control [survivor count not shown].

What about the T/C (dose: 3.13 mg/kg/injection, schedule: Q01DX009 (ip), vehicle: saline) of the same compound?
The T/C was 146 [survivor count not shown] and 178 % of control [survivor count not shown].

What about the T/C (dose: 3.3 mg/kg/injection, schedule: Q04DX003 (ip), vehicle: saline) of the same compound?
The T/C was 152 % of control [survivor count not shown].

What about the T/C (dose: 5.0 mg/kg/injection, schedule: Q01DX009 (ip), vehicle: saline) of the same compound?
The T/C was 101 [survivor count not shown], 110 [survivor count not shown], 144 % of control [survivor count not shown].

What about the T/C (dose: 5.0 mg/kg/injection, schedule: Q04DX003 (ip), vehicle: saline) of the same compound?
The T/C was 147 [survivor count not shown], 153 [survivor count not shown], 159 [survivor count not shown], 186 % of control [survivor count not shown].

What about the T/C (dose: 7.5 mg/kg/injection, schedule: Q04DX003 (ip), vehicle: saline) of the same compound?
Its T/C is 152 % of control [survivor count not shown].

And the T/C (dose: 10.0 mg/kg/injection, schedule: Q01DX009 (ip), vehicle: saline)?
Its T/C is 194 % of control [survivor count not shown].

What about the T/C (dose: 10.0 mg/kg/injection, schedule: Q04DX003 (ip), vehicle: saline) of the same compound?
The T/C was 100 [survivor count not shown], 113 [survivor count not shown], 170 % of control [survivor count not shown].

Which T/C (dose: 4.0 mg/kg/injection, schedule: Q01DX009 (ip), vehicle: saline) does the source give for `Cc1cc(C)cc(CN(CCCl)CCCl)c1` here?
The T/C was 179 % of control [survivor count not shown].

And the T/C (dose: 6.0 mg/kg/injection, schedule: Q01DX009 (ip), vehicle: saline)?
The T/C was 166 % of control [survivor count not shown].

And the T/C (dose: 9.0 mg/kg/injection, schedule: Q01DX009 (ip), vehicle: saline)?
The T/C was 179 % of control [survivor count not shown].

And the T/C (dose: 16.5 mg/kg/injection, schedule: Q04DX003 (ip), vehicle: saline)?
Its T/C is 178 % of control [survivor count not shown].

And the T/C (dose: 25.0 mg/kg/injection, schedule: Q04DX003 (ip), vehicle: saline)?
The T/C was 86 % of control [survivor count not shown].

With `CC(C)(O)C#CCN(CCCl)CCCl` as the compound, how does the T/C (dose: 0.38 mg/kg/injection, schedule: Q04DX003 (ip), vehicle: saline) read?
The T/C was 118 % of control [survivor count not shown].

And the T/C (dose: 0.58 mg/kg/injection, schedule: Q04DX003 (ip), vehicle: saline)?
Its T/C is 118 % of control [survivor count not shown].

What about the T/C (dose: 0.88 mg/kg/injection, schedule: Q04DX003 (ip), vehicle: saline with Tween-80) of the same compound?
Its T/C is 150 % of control [survivor count not shown].

And the T/C (dose: 1.3 mg/kg/injection, schedule: Q04DX003 (ip), vehicle: saline with Tween-80)?
The T/C was 165 % of control [survivor count not shown].

What about the T/C (dose: 2.0 mg/kg/injection, schedule: Q04DX003 (ip), vehicle: saline with Tween-80) of the same compound?
Its T/C is 200 % of control [survivor count not shown].

What about the T/C (dose: 3.0 mg/kg/injection, schedule: Q04DX003 (ip), vehicle: saline with Tween-80) of the same compound?
Its T/C is 204 % of control [survivor count not shown].

For `C1=Nc2ccccc2Oc2ccccc21`, which T/C (dose: 50.0 mg/kg/injection, schedule: Q01DX009 (ip), vehicle: saline with Tween-80) is on record?
Its T/C is 94 % of control [survivor count not shown].

And the T/C (dose: 100.0 mg/kg/injection, schedule: Q01DX009 (ip), vehicle: saline with Tween-80)?
Its T/C is 88 % of control [survivor count not shown].

And the T/C (dose: 200.0 mg/kg/injection, schedule: Q01DX009 (ip), vehicle: saline with Tween-80)?
Its T/C is 104 % of control [survivor count not shown].

Which results are given for `CN(CCBr)CCBr`?
T/C (dose: 0.04 mg/kg/injection, schedule: Q04DX003 (ip), vehicle: saline): 162 % of control [survivor count not shown]; T/C (dose: 0.06 mg/kg/injection, schedule: Q01DX009 (ip), vehicle: saline): 156 % of control [survivor count not shown]; T/C (dose: 0.06 mg/kg/injection, schedule: Q04DX003 (ip), vehicle: saline): 179 % of control [survivor count not shown]; T/C (dose: 0.09 mg/kg/injection, schedule: Q04DX003 (ip), vehicle: saline): 162 [survivor count not shown] and 169 % of control [survivor count not shown]; T/C (dose: 0.12 mg/kg/injection, schedule: Q01DX009 (ip), vehicle: saline): 192 % of control [survivor count not shown]; T/C (dose: 0.13 mg/kg/injection, schedule: Q04DX003 (ip), vehicle: saline): 192 % of control [survivor count not shown]; T/C (dose: 0.14 mg/kg/injection, schedule: Q04DX003 (ip), vehicle: saline): 191 % of control [survivor count not shown]; T/C (dose: 0.21 mg/kg/injection, schedule: Q01DX009 (ip), vehicle: saline): 273 % of control [survivor count not shown]; T/C (dose: 0.22 mg/kg/injection, schedule: Q04DX003 (ip), vehicle: saline): 173 % of control [survivor count not shown]; T/C (dose: 0.25 mg/kg/injection, schedule: Q01DX009 (ip), vehicle: saline): 228 % of control [survivor count not shown]; T/C (dose: 0.25 mg/kg/injection, schedule: Q04DX003 (ip), vehicle: saline): 192 % of control [survivor count not shown]; T/C (dose: 0.33 mg/kg/injection, schedule: Q01DX009 (ip), vehicle: saline): 277 % of control [survivor count not shown]; T/C (dose: 0.33 mg/kg/injection, schedule: Q04DX003 (ip), vehicle: saline): 195 [survivor count not shown] and 204 % of control [survivor count not shown]; T/C (dose: 0.37 mg/kg/injection, schedule: Q04DX003 (ip), vehicle: saline): 268 % of control [survivor count not shown]; T/C (dose: 0.5 mg/kg/injection, schedule: Q01DX009 (ip), vehicle: saline): 228 [survivor count not shown] and 277 % of control [survivor count not shown]; T/C (dose: 0.5 mg/kg/injection, schedule: Q04DX003 (ip), vehicle: saline): 250 [survivor count not shown] and 281 % of control [survivor count not shown]; T/C (dose: 0.75 mg/kg/injection, schedule: Q04DX003 (ip), vehicle: saline): 187 [survivor count not shown] and 209 % of control [survivor count not shown]; T/C [1]: 283 % of control [survivor count not shown]; T/C (dose: 1.1 mg/kg/injection, schedule: Q04DX003 (ip), vehicle: saline): 250 % of control [survivor count not shown]; T/C [2]: 90 [survivor count not shown] and 108 % of control [survivor count not shown]; T/C (dose: 17.0 micrograms/kg/injection, schedule: Q04DX003 (ip), vehicle: saline): 112 % of control [survivor count not shown]; T/C (dose: 26.0 micrograms/kg/injection, schedule: Q04DX003 (ip), vehicle: saline): 120 % of control [survivor count not shown]; T/C (dose: 40.0 micrograms/kg/injection, schedule: Q04DX003 (ip), vehicle: saline): 170 % of control [survivor count not shown]; T/C (dose: 50.0 micrograms/kg/injection, schedule: Q01DX009 (ip), vehicle: saline): 158 % of control [survivor count not shown]; T/C (dose: 75.0 micrograms/kg/injection, schedule: Q01DX009 (ip), vehicle: saline): 193 % of control [survivor count not shown]; T/C (dose: 100.0 micrograms/kg/injection, schedule: Q01DX009 (ip), vehicle: saline): 195 % of control [survivor count not shown]; T/C (dose: 150.0 micrograms/kg/injection, schedule: Q01DX009 (ip), vehicle: saline): 218 % of control [survivor count not shown]; T/C (dose: 200.0 micrograms/kg/injection, schedule: Q01DX009 (ip), vehicle: saline): 164 % of control [survivor count not shown]
